From the supplement of paper PMC12823440, “Inhibitors supercharge kinase turnover through native proteolytic circuits” (Nature, 2025)
Counter-ions that a name gives are not always drawn. The list shows a part of the results. The calls rarely recur for the same compound in another form.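 In K562 cells expressing nanoluciferase-fused kinases, luminescence was recorded at 4 h intervals between 2 and 18 h, normalized as percent of control with DMSO at 100% and a positive control at 0%. A significant (2 sigma) signal drop marks a time point as decreased. The authors' rule for a hit is not shown and takes in more than the number of time points.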

The chains behind the UniProt entries cited, without tags or fusion partners. Where a name states a change or a piece, a line headed by the entry shows the natural chain unless it says otherwise.
UniProt Q9UM73: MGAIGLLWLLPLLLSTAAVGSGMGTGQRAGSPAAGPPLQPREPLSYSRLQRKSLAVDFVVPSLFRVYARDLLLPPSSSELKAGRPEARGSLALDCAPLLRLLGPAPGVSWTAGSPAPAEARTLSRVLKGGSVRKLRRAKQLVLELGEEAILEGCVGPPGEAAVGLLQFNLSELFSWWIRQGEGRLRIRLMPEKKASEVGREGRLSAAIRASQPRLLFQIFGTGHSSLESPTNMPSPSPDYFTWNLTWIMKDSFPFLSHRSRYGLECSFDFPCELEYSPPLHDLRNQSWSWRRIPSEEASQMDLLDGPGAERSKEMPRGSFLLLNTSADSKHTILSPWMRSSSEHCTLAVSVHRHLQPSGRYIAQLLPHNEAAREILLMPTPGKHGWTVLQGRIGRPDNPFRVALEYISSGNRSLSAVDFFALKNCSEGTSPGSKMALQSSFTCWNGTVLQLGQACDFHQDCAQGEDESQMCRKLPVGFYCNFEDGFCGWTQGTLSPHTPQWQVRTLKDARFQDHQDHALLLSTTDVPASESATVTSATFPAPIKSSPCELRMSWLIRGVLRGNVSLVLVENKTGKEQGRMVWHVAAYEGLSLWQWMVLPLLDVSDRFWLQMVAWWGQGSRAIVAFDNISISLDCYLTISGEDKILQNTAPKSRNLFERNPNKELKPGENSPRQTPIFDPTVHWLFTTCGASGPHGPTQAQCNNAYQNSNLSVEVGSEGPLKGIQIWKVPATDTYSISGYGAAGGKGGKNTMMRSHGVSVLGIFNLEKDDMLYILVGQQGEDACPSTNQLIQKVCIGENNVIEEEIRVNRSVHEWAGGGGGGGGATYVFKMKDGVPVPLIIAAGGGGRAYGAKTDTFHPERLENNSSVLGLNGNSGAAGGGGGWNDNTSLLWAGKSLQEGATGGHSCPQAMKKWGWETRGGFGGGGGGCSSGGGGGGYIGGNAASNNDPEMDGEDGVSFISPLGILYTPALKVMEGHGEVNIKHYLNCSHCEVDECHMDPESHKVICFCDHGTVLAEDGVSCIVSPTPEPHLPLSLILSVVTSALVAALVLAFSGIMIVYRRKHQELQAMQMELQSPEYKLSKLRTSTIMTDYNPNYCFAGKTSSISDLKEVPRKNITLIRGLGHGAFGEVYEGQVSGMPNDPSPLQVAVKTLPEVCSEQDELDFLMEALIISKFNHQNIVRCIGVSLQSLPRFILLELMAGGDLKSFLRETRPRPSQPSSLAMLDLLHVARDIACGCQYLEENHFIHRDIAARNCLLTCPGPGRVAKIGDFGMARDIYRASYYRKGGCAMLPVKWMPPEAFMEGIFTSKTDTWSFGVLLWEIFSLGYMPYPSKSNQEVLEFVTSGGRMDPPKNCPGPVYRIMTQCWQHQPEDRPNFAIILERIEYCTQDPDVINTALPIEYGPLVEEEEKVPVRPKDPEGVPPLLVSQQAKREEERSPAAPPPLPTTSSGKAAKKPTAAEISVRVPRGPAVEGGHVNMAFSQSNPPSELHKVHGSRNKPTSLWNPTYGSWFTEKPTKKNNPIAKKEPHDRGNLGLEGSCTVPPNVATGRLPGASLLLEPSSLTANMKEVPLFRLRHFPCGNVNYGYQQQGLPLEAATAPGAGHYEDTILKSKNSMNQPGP
UniProt P10398: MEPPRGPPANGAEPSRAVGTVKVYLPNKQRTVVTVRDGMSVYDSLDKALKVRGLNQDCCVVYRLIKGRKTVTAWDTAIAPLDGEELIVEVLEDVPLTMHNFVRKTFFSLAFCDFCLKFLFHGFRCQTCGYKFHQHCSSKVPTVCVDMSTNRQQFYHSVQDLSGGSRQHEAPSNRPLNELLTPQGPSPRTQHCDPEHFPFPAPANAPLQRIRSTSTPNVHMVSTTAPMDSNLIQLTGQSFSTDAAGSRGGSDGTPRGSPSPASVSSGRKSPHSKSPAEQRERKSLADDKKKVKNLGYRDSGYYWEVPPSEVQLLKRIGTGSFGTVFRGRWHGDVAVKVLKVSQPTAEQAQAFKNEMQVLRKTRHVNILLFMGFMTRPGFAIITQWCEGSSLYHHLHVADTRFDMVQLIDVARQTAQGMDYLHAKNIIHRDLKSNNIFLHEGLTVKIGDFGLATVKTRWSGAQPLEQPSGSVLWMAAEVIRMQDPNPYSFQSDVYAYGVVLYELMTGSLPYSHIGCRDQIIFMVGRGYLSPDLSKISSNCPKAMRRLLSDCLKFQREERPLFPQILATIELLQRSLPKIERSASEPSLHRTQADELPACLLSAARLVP
UniProt O14965: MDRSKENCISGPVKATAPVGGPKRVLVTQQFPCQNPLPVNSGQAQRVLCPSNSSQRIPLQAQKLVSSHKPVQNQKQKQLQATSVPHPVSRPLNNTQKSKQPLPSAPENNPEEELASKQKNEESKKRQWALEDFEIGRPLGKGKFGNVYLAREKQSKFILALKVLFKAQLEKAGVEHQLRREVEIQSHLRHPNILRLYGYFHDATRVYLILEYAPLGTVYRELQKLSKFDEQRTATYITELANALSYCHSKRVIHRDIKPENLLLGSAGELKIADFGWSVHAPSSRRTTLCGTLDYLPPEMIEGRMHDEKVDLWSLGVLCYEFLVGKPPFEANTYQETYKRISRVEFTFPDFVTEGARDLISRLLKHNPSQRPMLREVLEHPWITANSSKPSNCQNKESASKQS
UniProt Q96GD4, whole entry: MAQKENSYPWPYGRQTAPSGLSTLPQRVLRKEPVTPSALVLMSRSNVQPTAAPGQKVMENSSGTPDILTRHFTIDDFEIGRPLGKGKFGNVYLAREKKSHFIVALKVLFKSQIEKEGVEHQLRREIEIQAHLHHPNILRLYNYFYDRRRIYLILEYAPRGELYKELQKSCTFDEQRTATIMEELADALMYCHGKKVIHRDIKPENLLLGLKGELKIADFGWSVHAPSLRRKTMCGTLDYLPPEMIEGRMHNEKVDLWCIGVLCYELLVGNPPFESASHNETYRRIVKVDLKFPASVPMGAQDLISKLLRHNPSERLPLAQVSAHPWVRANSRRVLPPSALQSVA
UniProt Q9UQB9: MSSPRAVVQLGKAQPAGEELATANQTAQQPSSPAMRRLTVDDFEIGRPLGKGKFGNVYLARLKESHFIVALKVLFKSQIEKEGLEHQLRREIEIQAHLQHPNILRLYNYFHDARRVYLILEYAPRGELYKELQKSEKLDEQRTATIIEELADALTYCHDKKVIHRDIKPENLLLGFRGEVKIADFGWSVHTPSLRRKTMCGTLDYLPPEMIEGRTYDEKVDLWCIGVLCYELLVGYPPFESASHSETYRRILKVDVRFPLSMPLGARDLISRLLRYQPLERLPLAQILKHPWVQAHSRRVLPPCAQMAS
UniProt P15056, whole entry, looked up: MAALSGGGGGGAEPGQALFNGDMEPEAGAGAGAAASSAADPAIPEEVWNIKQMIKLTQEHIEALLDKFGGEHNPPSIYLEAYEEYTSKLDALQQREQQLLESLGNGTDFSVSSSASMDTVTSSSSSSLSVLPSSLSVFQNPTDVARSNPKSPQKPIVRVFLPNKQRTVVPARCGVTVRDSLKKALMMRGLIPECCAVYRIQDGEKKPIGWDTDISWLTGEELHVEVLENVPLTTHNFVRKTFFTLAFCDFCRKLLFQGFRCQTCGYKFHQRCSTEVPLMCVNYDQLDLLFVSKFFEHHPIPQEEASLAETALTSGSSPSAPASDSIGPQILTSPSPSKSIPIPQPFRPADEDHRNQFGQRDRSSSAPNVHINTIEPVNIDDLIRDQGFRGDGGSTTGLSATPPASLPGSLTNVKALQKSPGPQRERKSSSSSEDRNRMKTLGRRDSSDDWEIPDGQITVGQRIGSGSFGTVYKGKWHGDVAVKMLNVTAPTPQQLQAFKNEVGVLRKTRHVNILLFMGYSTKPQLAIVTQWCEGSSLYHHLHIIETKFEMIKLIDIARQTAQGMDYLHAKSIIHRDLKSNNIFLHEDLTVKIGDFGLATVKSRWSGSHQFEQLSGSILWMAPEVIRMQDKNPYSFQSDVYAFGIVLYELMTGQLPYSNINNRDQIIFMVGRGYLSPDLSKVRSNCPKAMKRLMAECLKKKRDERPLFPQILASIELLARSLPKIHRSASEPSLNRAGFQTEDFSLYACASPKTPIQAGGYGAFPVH
UniProt Q06187: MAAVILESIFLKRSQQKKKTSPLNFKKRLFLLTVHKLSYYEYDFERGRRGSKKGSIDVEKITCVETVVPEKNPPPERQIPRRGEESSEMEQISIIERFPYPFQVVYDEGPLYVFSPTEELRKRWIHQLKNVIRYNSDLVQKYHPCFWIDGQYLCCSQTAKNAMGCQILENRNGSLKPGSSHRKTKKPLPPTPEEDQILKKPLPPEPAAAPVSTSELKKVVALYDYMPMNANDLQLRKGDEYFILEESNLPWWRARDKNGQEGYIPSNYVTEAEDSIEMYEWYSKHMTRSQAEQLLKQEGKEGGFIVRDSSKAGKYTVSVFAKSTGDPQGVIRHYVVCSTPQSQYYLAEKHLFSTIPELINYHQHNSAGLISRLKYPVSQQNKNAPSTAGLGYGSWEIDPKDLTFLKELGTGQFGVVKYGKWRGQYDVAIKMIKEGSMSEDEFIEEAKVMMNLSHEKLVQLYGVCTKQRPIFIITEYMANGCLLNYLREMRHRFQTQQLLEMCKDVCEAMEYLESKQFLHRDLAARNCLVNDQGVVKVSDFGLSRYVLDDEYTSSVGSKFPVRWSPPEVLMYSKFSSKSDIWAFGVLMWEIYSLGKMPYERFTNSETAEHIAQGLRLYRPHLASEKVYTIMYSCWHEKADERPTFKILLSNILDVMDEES
UniProt Q9UQM7, whole entry: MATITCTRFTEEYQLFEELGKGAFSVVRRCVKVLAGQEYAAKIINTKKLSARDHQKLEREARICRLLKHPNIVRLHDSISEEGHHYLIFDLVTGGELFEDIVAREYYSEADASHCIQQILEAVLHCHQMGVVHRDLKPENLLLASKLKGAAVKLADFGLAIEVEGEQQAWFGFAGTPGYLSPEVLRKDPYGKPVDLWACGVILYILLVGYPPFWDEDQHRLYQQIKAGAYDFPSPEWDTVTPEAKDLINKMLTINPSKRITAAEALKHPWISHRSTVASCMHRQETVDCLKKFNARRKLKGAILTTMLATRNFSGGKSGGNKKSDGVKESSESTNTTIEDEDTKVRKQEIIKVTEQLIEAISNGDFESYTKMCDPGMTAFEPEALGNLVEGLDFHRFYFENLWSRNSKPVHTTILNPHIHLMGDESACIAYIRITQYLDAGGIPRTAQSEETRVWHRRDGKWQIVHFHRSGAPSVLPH
UniProt Q15131: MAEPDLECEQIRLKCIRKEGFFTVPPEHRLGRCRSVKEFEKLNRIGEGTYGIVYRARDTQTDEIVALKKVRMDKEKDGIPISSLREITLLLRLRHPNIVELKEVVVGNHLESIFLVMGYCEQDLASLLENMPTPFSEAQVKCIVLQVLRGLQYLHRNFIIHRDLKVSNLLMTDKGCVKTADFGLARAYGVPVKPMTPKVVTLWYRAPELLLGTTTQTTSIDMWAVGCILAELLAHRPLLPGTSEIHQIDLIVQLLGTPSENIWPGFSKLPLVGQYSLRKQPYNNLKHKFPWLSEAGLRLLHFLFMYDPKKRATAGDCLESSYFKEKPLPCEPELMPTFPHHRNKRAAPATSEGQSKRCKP
UniProt Q00526: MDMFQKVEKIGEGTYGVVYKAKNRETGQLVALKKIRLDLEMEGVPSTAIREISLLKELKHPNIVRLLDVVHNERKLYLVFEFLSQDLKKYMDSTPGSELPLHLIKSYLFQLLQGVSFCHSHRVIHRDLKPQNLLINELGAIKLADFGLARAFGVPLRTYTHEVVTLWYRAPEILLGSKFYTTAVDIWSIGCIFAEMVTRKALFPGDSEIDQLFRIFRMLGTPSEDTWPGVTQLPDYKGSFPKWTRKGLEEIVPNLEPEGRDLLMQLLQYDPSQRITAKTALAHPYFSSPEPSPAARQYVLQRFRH
UniProt Q00535, whole entry, looked up: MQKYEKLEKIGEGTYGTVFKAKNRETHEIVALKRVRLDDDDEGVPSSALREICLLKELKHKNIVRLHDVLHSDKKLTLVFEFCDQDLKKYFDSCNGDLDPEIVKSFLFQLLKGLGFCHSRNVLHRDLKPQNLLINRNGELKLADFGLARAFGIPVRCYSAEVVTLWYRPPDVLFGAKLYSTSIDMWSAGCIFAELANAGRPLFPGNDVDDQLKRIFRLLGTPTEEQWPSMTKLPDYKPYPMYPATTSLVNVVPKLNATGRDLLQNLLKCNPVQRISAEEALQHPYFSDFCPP
UniProt P41240: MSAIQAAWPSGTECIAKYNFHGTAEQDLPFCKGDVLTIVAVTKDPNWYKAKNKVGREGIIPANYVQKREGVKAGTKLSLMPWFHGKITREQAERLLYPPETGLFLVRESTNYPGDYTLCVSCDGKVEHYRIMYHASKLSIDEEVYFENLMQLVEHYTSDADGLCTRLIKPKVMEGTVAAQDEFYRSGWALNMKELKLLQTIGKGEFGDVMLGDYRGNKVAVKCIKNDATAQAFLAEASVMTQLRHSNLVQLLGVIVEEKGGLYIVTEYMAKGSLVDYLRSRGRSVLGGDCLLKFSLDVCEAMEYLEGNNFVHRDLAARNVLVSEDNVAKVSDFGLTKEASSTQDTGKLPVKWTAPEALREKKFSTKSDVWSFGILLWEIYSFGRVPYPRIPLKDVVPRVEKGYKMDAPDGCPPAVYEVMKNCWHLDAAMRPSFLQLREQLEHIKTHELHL

Columns and labels:
Experiment in all cases: number of time points (of 5) at which kinase-Nluc abundance scored as decreased, DMSO-normalised (count); higher = more persistent destabilization
Conditions in all cases: K562; 2-18 h
ALK = ALK (UniProt Q9UM73)
ARAF = ARAF (UniProt P10398)
AURKA = AURKA (UniProt O14965)
AURKB = AURKB (UniProt Q96GD4)
AURKC = AURKC (UniProt Q9UQB9)
BLK = BLK (UniProt P51451)
BMX = BMX (UniProt P51813)
BRAF = BRAF (UniProt P15056)
BRAF_V600E = test system: BRAF_V600E
BTK = BTK (UniProt Q06187)
CAMK2A = CAMK2A (UniProt Q9UQM7)
CAMK2G = CAMK2G (UniProt Q13555)
CDK10 = CDK10 (UniProt Q15131)
CDK2 = CDK2 (UniProt P24941)
CDK3 = CDK3 (UniProt Q00526)
CDK5 = CDK5 (UniProt Q00535)
CDK6 = CDK6 (UniProt Q00534)
CHEK2 = CHEK2 (UniProt O96017)
CSF1R = CSF1R (UniProt P07333)
CSK = CSK (UniProt P41240)

SMILES | number of time points (ALK) | number of time points (ARAF) | number of time points (AURKA) | number of time points (AURKB) | number of time points (AURKC) | number of time points (BLK) | number of time points (BMX) | number of time points (BRAF) | number of time points (BRAF_V600E) | number of time points (BTK) | number of time points (CAMK2A) | number of time points (CAMK2G) | number of time points (CDK10) | number of time points (CDK2) | number of time points (CDK3) | number of time points (CDK5) | number of time points (CDK6) | number of time points (CHEK2) | number of time points (CSF1R) | number of time points (CSK)
CC(C)CN[C@H]1CS(=O)(=O)C[C@@H]1S(=O)(=O)c1ccc(Cl)cc1 (10 µM) | 2 | 0 | 0 | 0 | 0 | 0 | 1 | 0 | 2 | 0 | 0 | 0 | 0 | 0 | 0 | 0 | 0 | 0 | 0 | 0
O=C(NCCCNc1nc(Nc2cccc(NC(=O)N3CCCC3)c2)ncc1I)c1cccs1 (2.5 µM) | 0 | 0 | 0 | 0 | 0 | 0 | 0 | 0 | 0 | 0 | 0 | 0 | 0 | 0 | 0 | 0 | 0 | 0 | 0 | 0
C#CCN(C)C(=O)CCNc1nc(N2CCN(C(=O)C=C)CC2)c2cc(Cl)c(-c3c(O)cccc3F)c(F)c2n1 [ARS-1323-alkyne] (2.5 µM) | 0 | 0 | 0 | 0 | 0 | 0 | 0 | 0 | 0 | 0 | 0 | 0 | 0 | 0 | 0 | 0 | 0 | 0 | 0 | 0
N#Cc1ccc2ncnc(NC3CCC(N4CCOCC4)CC3)c2c1 (stereo not given) (10 µM) | 0 | 0 | 0 | 0 | 0 | 0 | 0 | 0 | 0 | 0 | 0 | 0 | 0 | 0 | 0 | 0 | 0 | 0 | 0 | 0
Cc1cc(O)c(C(C)C)cc1N=O [Poloxime] (10 µM) | 0 | 0 | 0 | 0 | 0 | 0 | 0 | 0 | 0 | 0 | 0 | 0 | 0 | 0 | 0 | 0 | 0 | 0 | 0 | 0
CCn1c(C(=O)N(C2CC2)C2CC2)cc2c3c(ncn3C)c(Nc3cc(C)n(C)n3)nc21 (10 µM) | 0 | 0 | 0 | 0 | 0 | 0 | 0 | 0 | 0 | 0 | 0 | 0 | 0 | 0 | 0 | 0 | 0 | 0 | 0 | 0
CC(C)=CC[C@H](O)C1=CC(=O)c2c(O)ccc(O)c2C1=O [(-)-Alkannin] (2.5 µM) | 0 | 0 | 0 | 0 | 0 | 0 | 0 | 0 | 0 | 0 | 0 | 0 | 0 | 0 | 0 | 0 | 0 | 0 | 0 | 0
Cc1cc([C@H](C)Nc2ccccc2)c2oc(N3CCOCC3)cc(=O)c2c1 (10 µM) | 0 | 0 | 0 | 0 | 0 | 0 | 0 | 0 | 0 | 0 | 0 | 0 | 0 | 0 | 0 | 0 | 0 | 0 | 0 | 0
Cc1cc(Nc2nc(N[C@@H](C)c3ccc(F)cc3)c(C#N)cc2F)n[nH]1 (10 µM) | 0 | 0 | 0 | 0 | 0 | 0 | 0 | 0 | 1 | 0 | 0 | 0 | 0 | 0 | 0 | 0 | 0 | 0 | 0 | 0
CNc1nc(Nc2cnn(C3CCN(C4COC4)CC3F)c2Cl)ncc1C(F)(F)F (stereo not given) (10 µM) | 0 | 0 | 0 | 0 | 0 | 0 | 0 | 0 | 0 | 0 | 0 | 0 | 0 | 0 | 0 | 0 | 0 | 0 | 0 | 0
COC1(C(=O)N2Cc3nc(Cl)nc(N[C@H](C)c4cc(N)cc(C(F)(F)F)c4)c3C2)CCOCC1 (10 µM) | 0 | 0 | 0 | 0 | 0 | 0 | 0 | 0 | 0 | 0 | 0 | 0 | 0 | 0 | 0 | 0 | 0 | 0 | 0 | 0
CCN(CC)c1ccc2cc(C(=O)N3CCN(C(=O)C4=Cc5c(Br)cccc5S4(=O)=O)CC3)c(=O)oc2c1 (2 µM) | 0 | 0 | 1 | 0 | 0 | 0 | 0 | 0 | 0 | 0 | 0 | 0 | 0 | 0 | 0 | 0 | 0 | 0 | 0 | 0
Cc1c(CN2CCN(C(=O)[C@H](C)O)CC2)sc2c(N3CCOCC3)nc(-c3cnc(N)nc3)nc12 [Apitolisib] (10 µM) | 0 | 0 | 4 | 1 | 0 | 2 | 4 | 2 | 3 | 0 | 0 | 0 | 0 | 0 | 0 | 0 | 0 | 0 | 0 | 0
O=C(/C=C/c1ccc(O)c(O)c1)OC1CC(OC(=O)/C=C/c2ccc(O)c(O)c2)(C(=O)O)CC(O)C1O (stereo not given) [1,3-Dicaffeoylquinic acid] (10 µM) | 0 | 0 | 0 | 0 | 0 | 0 | 0 | 0 | 0 | 0 | 0 | 0 | 0 | 0 | 0 | 0 | 0 | 0 | 0 | 0
NCCN1CCN(C/C=C/C(=O)N2CCC[C@@H](n3nc(-c4ccc(Oc5ccccc5)cc4)c4c(N)ncnc43)C2)CC1 [Ibrutinib-MPEA] (10 µM) | 0 | 0 | 0 | 0 | 0 | 0 | 0 | 0 | 0 | 0 | 0 | 0 | 0 | 0 | 0 | 0 | 0 | 0 | 0 | 0
CN(C)CCN(Cc1ccc(Cl)cc1)c1ccccn1 [Chloropyramine hydrochloride] (10 µM) | 0 | 0 | 0 | 0 | 0 | 0 | 0 | 0 | 0 | 0 | 0 | 0 | 0 | 0 | 0 | 0 | 0 | 0 | 0 | 0

Part of the list above in order of SMILES length, high to low.
SMILES | number of time points (ALK) | number of time points (ARAF) | number of time points (AURKA) | number of time points (AURKB) | number of time points (AURKC) | number of time points (BLK) | number of time points (BMX) | number of time points (BRAF) | number of time points (BRAF_V600E) | number of time points (BTK) | number of time points (CAMK2A) | number of time points (CAMK2G) | number of time points (CDK10) | number of time points (CDK2) | number of time points (CDK3) | number of time points (CDK5) | number of time points (CDK6) | number of time points (CHEK2) | number of time points (CSF1R) | number of time points (CSK)
CCn1c(C(=O)N(C2CC2)C2CC2)cc2c3c(ncn3C)c(Nc3cc(C)n(C)n3)nc21 (10 µM) | 0 | 0 | 0 | 0 | 0 | 0 | 0 | 0 | 0 | 0 | 0 | 0 | 0 | 0 | 0 | 0 | 0 | 0 | 0 | 0
Cc1cc(Nc2nc(N[C@@H](C)c3ccc(F)cc3)c(C#N)cc2F)n[nH]1 (10 µM) | 0 | 0 | 0 | 0 | 0 | 0 | 0 | 0 | 1 | 0 | 0 | 0 | 0 | 0 | 0 | 0 | 0 | 0 | 0 | 0
Cc1cc([C@H](C)Nc2ccccc2)c2oc(N3CCOCC3)cc(=O)c2c1 (10 µM) | 0 | 0 | 0 | 0 | 0 | 0 | 0 | 0 | 0 | 0 | 0 | 0 | 0 | 0 | 0 | 0 | 0 | 0 | 0 | 0
